{"source": "paper PMC7062741", "target": "T1, CD151 tetraspanin (mouse (endogenous in epididymal sperm)) (UniProt O35566)", "T1 sequence": "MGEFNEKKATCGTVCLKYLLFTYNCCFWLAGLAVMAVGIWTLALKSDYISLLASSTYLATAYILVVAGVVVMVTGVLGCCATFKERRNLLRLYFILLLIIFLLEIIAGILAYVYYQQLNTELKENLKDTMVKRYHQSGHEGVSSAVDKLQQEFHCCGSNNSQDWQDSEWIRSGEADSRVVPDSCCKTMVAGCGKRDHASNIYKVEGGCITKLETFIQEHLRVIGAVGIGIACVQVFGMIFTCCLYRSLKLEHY", "assay": "co-IP; mouse epididymal sperm (5 x 10^7) lysed in 20 mM Tris-HCl, 137 mM NaCl, pH 8 with 1% CHAPS at 4 °C; precipitated with polyclonal anti-CD151 (ab125363) and Protein A/G agarose; blot with anti-α6 (F-6) or anti-α3 (H-43) integrin antibody; rabbit IgG as control", "note": "These are yes or no findings as the source states them, for the method shown. Binding seen in cells or lysates may run through a third protein. Some entries that bind do so weakly or less than the wild type.", "data": [{"binder": "α6 integrin subunit (protein, UniProt Q61739 24-1091) FNLDTREDNVIRKSGDPGSLFGFSLAMHWQLQPEDKRLLLVGAPRAEALPLQRANRTGGLYSCDITSRGPCTRIEFDNDADPMSESKEDQWMGVTVQSQGPGGKVVTCAHRYEKRQHVNTKQESRDIFGRCYVLSQNLRIEDDMDGGDWSFCDGRLRGHEKFGSCQQGVAATFTKDFHYIVFGAPGTYNWKGIVRVEQKNNTFFDMNIFEDGPYEVGGETDHDESLVPVPANSYLGFSLDSGKGIVSKDDITFVSGAPRANHSGAVVLLKRDMKSAHLLPEYIFDGEGLASSFGYDVAVVDLNADGWQDIVIGAPQYFDRDGEVGGAVYVYINQQGKWSNVKPIRLNGTKDSMFGISVKNIGDINQDGYPDIAVGAPYDDLGKVFIYHGSPTGIITKPTQVLEGTSPYFGYSIAGNMDLDRNSYPDLAVGSLSDSVTIFRSRPVINILKTITVTPNRIDLRQKSMCGSPSGICLKVKACFEYTAKPSGYNPPISILGILEAEKERRKSGLSSRVQFRNQGSEPKYTQELTLNRQKQRACMEETLWLQENIRDKLRPIPITASVEIQEPSSRRRVNSLPEVLPILNSNEAKTVQTDVHFLKEGCGDDNVCNSNLKLEYKFGTREGNQDKFSYLPIQKGIPELVLKDQKDIALEITVTNSPSDPRNPRKDGDDAHEAKLIATFPDTLTYSAYRELRAFPEKQLSCVANQNGSQADCELGNPFKRNSSVTFYLILSTTEVTFDTTDLDINLKLETTSNQDNLAPITAKAKVVIELLLSVSGVAKPSQVYFGGTVVGEQAMKSEDEVGSLIEYEFRVINLGKPLKNLGTATLNIQWPKEISNGKWLLYLMKVESKGLEQIVCEPHNEINYLKLKESHNSRKKRELPEKQIDDSRKFSLFPERKYQTLNCSVNVRCVNIRCPLRGLDSKASLVLRSRLWNSTFLEEYSKLNYLDILLRASIDVTAAAQNIKLPHAGTQVRVTVFPSKTVAQYSGVAWWIILLAVLAGILMLALLVFLLWKCGFFKRSRYDDSIPRYHAVRIRKEEREIKDEKHMDNLEKKQWITKWNENESYS", "values": [{"measurement": "binding", "value": "binds"}]}, {"binder": "α3 integrin subunit (protein, UniProt Q62470 33-1053) FNLDTRFLVVKEAVNPGSLFGYSVALHRQTERQQRYLLLAGAPRDLAVGDDYTNRTGAVYLCPLTAHKDDCERMDISEKSDPDHHIIEDMWLGVTVASQGPAGRVLVCAHRYTKVLWSGLEDQRRMVGKCYVRGNDLQLDPGDDWQTYHNEMCNSNTDYLQTGMCQLGTSGGFTQNTVYFGAPGAYNWKGNSYMIQRKDWDLSEYSYRGSEEQGNLYIGYTVQVGNAILHPTDIITVVTGAPRHQHMGAVFLLKQESGGDLQRKQVLKGTQVGAYFGSAIALADLNNDGWQDLLVGAPYYFERKEEVGGAVYVFMNQAGASFPDQPSLLLHGPSRSAFGISIASIGDINQDGFQDIAVGAPFEGLGKVYIYHSSSGGLLRQPQQIIHGEKLGLPGLATFGYSLSGKMDVDENLYPDLLVGSLSDHIVLLRARPVINILHRTLVARPAVLDPALCTATSCVQVELCFAYNQSAGNPNYRRNITLAYTLEADRDRRPPRLRFARSQSSVFHGFFSMPETHCQTLELLLMDNVRDKLRPIVIAMNYSLPLRMPDRLKLGLRSLDAYPVLNQAQAMENHTEVHFQKECGPDNKCDSNLQMRAAFLSEQLQPLSRLQYSRDTKKLFLSINVTNSPSSQRAGEDAHEALLTLEVPSALLLSSVRPSGTCQANNETILCELGNPFKRNQRMELLIAFEVIGVTLHTRDLPVLLQLSTSSHQDNLQPVLLTLQVDYTLQASLSLMNHRLQSFFGGTVMGEAAMKTAEDVGSPLKYEFQVSPVGDGLAALGTLVLGLEWPYEVTNGKWLLYPTEITIHSNGSWPCQPSGNLVNPLNLTLSDPGVTPLSPQRRRRQLDPGGDQSSPPVTLAAAKKAKSETVLTCSNGRARCVWLECPLPDTSNITNVTVKARVWNSTFIEDYKDFDRVRVDGWATLFLRTSIPTINMENKTTWFSVDIDSELVEELPAEIELWLVLVAVGAGLLLLGLIILLLWKCGFFKRARTRALYEAKRQKAEMKSQPSETERLTDDY", "values": [{"measurement": "binding", "value": "no binding"}]}]}
